Measurements reported in PubChem BioAssay AID1159593 (NIAID, 2016)
Purpose: 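TLR pathway parts governing NF-kappaB p65 translocation after LPS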. Cells: RAW264.7 macrophages of mouse, with reporters for p65 (GFP) and the Tnf promoter (mCherry). Reagent: single siRNA against mouse genes. Timing: 48 to 72 hours after siRNA transfection, then LPS for 40 min. Challenge: LPS (Salmonella minnesota R595) for 40 min before fixation; dose not given. Measured: 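High-content imaging of GFP-p65 moving into nuclei after 40 min LPS, plate median/MAD normalised, replicate mean of robust z-score relative to negative controls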. Direction: p65 translocation z-score: higher = more nuclear NF-kappaB p65 after LPS. Rule for the call: 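Activity score grows with absolute z: 25 beyond 1, 50 beyond 1.5, 75 beyond 2, 100 beyond 2.5; active calls here sit at about z 1.5 or more either way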. Calls: active = changed p65 translocation (either direction); inactive = no clear change.
The whole screen tested 756 reagents; shown is an unselected part. 137 of them (18%) were called active. 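Active means p65 translocation went either up or down; genes were judged on the median of six siRNAs, not single siRNAs.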 Reagents against one gene are numbered here. No sequences are given here. The record does not give: the amount of reagent.

no.	gene	siRNA no.	p65 translocation z-score	Outcome
1	Cd180 (CD180 antigen)	1	-2.05	active
2	Cd180 (CD180 antigen)	2	0.64	inactive
3	Cd180 (CD180 antigen)	3	0.936	inactive
4	Cd180 (CD180 antigen)	4	0.275	inactive
5	Cd180 (CD180 antigen)	5	-1.31	inactive
6	Cd180 (CD180 antigen)	6	0.247	inactive
7	Ptpn6 (protein tyrosine phosphatase, non-receptor type 6)	1	0.00781	inactive
8	Ptpn6 (protein tyrosine phosphatase, non-receptor type 6)	2	0.386	inactive
9	Ptpn6 (protein tyrosine phosphatase, non-receptor type 6)	3	-2.82	active
10	Ptpn6 (protein tyrosine phosphatase, non-receptor type 6)	4	-1	inactive
11	Ptpn6 (protein tyrosine phosphatase, non-receptor type 6)	5	1.67	active
12	Ptpn6 (protein tyrosine phosphatase, non-receptor type 6)	6	-2.2	active
13	Ly86 (lymphocyte antigen 86)	1	0.111	inactive
14	Ly86 (lymphocyte antigen 86)	2	-1.86	active
15	Ly86 (lymphocyte antigen 86)	3	-0.61	inactive
16	Ly86 (lymphocyte antigen 86)	4	-1.78	active
17	Ly86 (lymphocyte antigen 86)	5	1.52	active
18	Ly86 (lymphocyte antigen 86)	6	-0.085	inactive
19	Akt3 (Akt serine/threonine kinase 3)	1	0.721	inactive
20	Akt3 (Akt serine/threonine kinase 3)	2	0.363	inactive
21	Akt3 (Akt serine/threonine kinase 3)	3	-0.422	inactive
22	Akt3 (Akt serine/threonine kinase 3)	4	-0.731	inactive
23	Akt3 (Akt serine/threonine kinase 3)	5	-0.917	inactive
24	Akt3 (Akt serine/threonine kinase 3)	6	-0.973	inactive
25	Btk (Bruton agammaglobulinemia tyrosine kinase)	1	-0.0989	inactive
26	Btk (Bruton agammaglobulinemia tyrosine kinase)	2	-0.72	inactive
27	Btk (Bruton agammaglobulinemia tyrosine kinase)	3	-1.42	inactive
28	Btk (Bruton agammaglobulinemia tyrosine kinase)	4	-2.3	active
29	Btk (Bruton agammaglobulinemia tyrosine kinase)	5	-0.83	inactive
30	Btk (Bruton agammaglobulinemia tyrosine kinase)	6	-0.00458	inactive
31	Mapk1 (mitogen-activated protein kinase 1)	1	-0.325	inactive
32	Mapk1 (mitogen-activated protein kinase 1)	2	-0.922	inactive
33	Mapk1 (mitogen-activated protein kinase 1)	3	-0.519	inactive
34	Mapk1 (mitogen-activated protein kinase 1)	4	0.877	inactive
35	Mapk1 (mitogen-activated protein kinase 1)	5	0.639	inactive
36	Mapk1 (mitogen-activated protein kinase 1)	6	3.89	active
37	Mapk10 (mitogen-activated protein kinase 10)	1	1.25	inactive
38	Mapk10 (mitogen-activated protein kinase 10)	2	0.189	inactive
39	Mapk10 (mitogen-activated protein kinase 10)	3	-0.911	inactive
40	Mapk10 (mitogen-activated protein kinase 10)	4	-0.645	inactive
41	Mapk10 (mitogen-activated protein kinase 10)	5	-0.663	inactive
42	Mapk10 (mitogen-activated protein kinase 10)	6	-1.16	inactive
43	Map2k7 (mitogen-activated protein kinase kinase 7)	1	1.11	inactive
44	Map2k7 (mitogen-activated protein kinase kinase 7)	2	-0.41	inactive
45	Map2k7 (mitogen-activated protein kinase kinase 7)	3	-0.701	inactive
46	Map2k7 (mitogen-activated protein kinase kinase 7)	4	-1.57	active
47	Map2k7 (mitogen-activated protein kinase kinase 7)	5	-0.475	inactive
48	Map2k7 (mitogen-activated protein kinase kinase 7)	6	-0.762	inactive
49	Pik3cb	1	-0.077	inactive
50	Pik3cb	2	-0.962	inactive
51	Pik3cb	3	-0.583	inactive
52	Pik3cb	4	-0.54	inactive
53	Pik3cb	5	-0.956	inactive
54	Pik3cb	6	-1.52	active
55	Sigirr	1	-2.05	active
56	Sigirr	2	-2.56	active
57	Sigirr	3	-0.878	inactive
58	Sigirr	4	-1.51	active
59	Sigirr	5	-1.03	inactive
60	Sigirr	6	-0.692	inactive
61	Dusp1 (dual specificity phosphatase 1)	1	0.153	inactive
62	Dusp1 (dual specificity phosphatase 1)	2	-0.227	inactive
63	Dusp1 (dual specificity phosphatase 1)	3	-0.028	inactive
64	Dusp1 (dual specificity phosphatase 1)	4	0.406	inactive
65	Dusp1 (dual specificity phosphatase 1)	5	-1.54	active
66	Dusp1 (dual specificity phosphatase 1)	6	-1.47	inactive
67	Tnfaip3 (tumor necrosis factor, alpha-induced protein 3)	1	0.0947	inactive
68	Tnfaip3 (tumor necrosis factor, alpha-induced protein 3)	2	-1.19	inactive
69	Tnfaip3 (tumor necrosis factor, alpha-induced protein 3)	3	1.46	inactive
70	Tnfaip3 (tumor necrosis factor, alpha-induced protein 3)	4	0.379	inactive
71	Tnfaip3 (tumor necrosis factor, alpha-induced protein 3)	5	-0.818	inactive
72	Tnfaip3 (tumor necrosis factor, alpha-induced protein 3)	6	-1.73	active
73	Ube2n (ubiquitin-conjugating enzyme E2N)	1	0.179	inactive
74	Ube2n (ubiquitin-conjugating enzyme E2N)	2	-1.1	inactive
75	Ube2n (ubiquitin-conjugating enzyme E2N)	3	0.69	inactive
76	Ube2n (ubiquitin-conjugating enzyme E2N)	4	0.0273	inactive
77	Ube2n (ubiquitin-conjugating enzyme E2N)	5	-2.01	active
78	Ube2n (ubiquitin-conjugating enzyme E2N)	6	0.144	inactive
79	Map3k1 (mitogen-activated protein kinase kinase kinase 1)	1	0.656	inactive
80	Map3k1 (mitogen-activated protein kinase kinase kinase 1)	2	-1.29	inactive
81	Map3k1 (mitogen-activated protein kinase kinase kinase 1)	3	0.745	inactive
82	Map3k1 (mitogen-activated protein kinase kinase kinase 1)	4	-0.43	inactive
83	Map3k1 (mitogen-activated protein kinase kinase kinase 1)	5	2.83	active
84	Map3k1 (mitogen-activated protein kinase kinase kinase 1)	6	-0.45	inactive
85	Tank (TRAF family member-associated Nf-kappa B activator)	1	-0.294	inactive
86	Tank (TRAF family member-associated Nf-kappa B activator)	2	3.97	active
87	Tank (TRAF family member-associated Nf-kappa B activator)	3	0.504	inactive
88	Tank (TRAF family member-associated Nf-kappa B activator)	4	-0.441	inactive
89	Tank (TRAF family member-associated Nf-kappa B activator)	5	1.56	active
90	Tank (TRAF family member-associated Nf-kappa B activator)	6	-0.338	inactive
91	Elk4 (ETS transcription factor ELK4)	1	-2.11	active
92	Elk4 (ETS transcription factor ELK4)	2	-0.228	inactive
93	Elk4 (ETS transcription factor ELK4)	3	-0.268	inactive
94	Elk4 (ETS transcription factor ELK4)	4	-1.12	inactive
95	Elk4 (ETS transcription factor ELK4)	5	-0.802	inactive
96	Elk4 (ETS transcription factor ELK4)	6	-0.834	inactive

21 successive records from above:
no.	gene	siRNA no.	p65 translocation z-score	Outcome
28	Btk (Bruton agammaglobulinemia tyrosine kinase)	4	-2.3	active
29	Btk (Bruton agammaglobulinemia tyrosine kinase)	5	-0.83	inactive
30	Btk (Bruton agammaglobulinemia tyrosine kinase)	6	-0.00458	inactive
31	Mapk1 (mitogen-activated protein kinase 1)	1	-0.325	inactive
32	Mapk1 (mitogen-activated protein kinase 1)	2	-0.922	inactive
33	Mapk1 (mitogen-activated protein kinase 1)	3	-0.519	inactive
34	Mapk1 (mitogen-activated protein kinase 1)	4	0.877	inactive
35	Mapk1 (mitogen-activated protein kinase 1)	5	0.639	inactive
36	Mapk1 (mitogen-activated protein kinase 1)	6	3.89	active
37	Mapk10 (mitogen-activated protein kinase 10)	1	1.25	inactive
38	Mapk10 (mitogen-activated protein kinase 10)	2	0.189	inactive
39	Mapk10 (mitogen-activated protein kinase 10)	3	-0.911	inactive
40	Mapk10 (mitogen-activated protein kinase 10)	4	-0.645	inactive
41	Mapk10 (mitogen-activated protein kinase 10)	5	-0.663	inactive
42	Mapk10 (mitogen-activated protein kinase 10)	6	-1.16	inactive
43	Map2k7 (mitogen-activated protein kinase kinase 7)	1	1.11	inactive
44	Map2k7 (mitogen-activated protein kinase kinase 7)	2	-0.41	inactive
45	Map2k7 (mitogen-activated protein kinase kinase 7)	3	-0.701	inactive
46	Map2k7 (mitogen-activated protein kinase kinase 7)	4	-1.57	active
47	Map2k7 (mitogen-activated protein kinase kinase 7)	5	-0.475	inactive
48	Map2k7 (mitogen-activated protein kinase kinase 7)	6	-0.762	inactive

The results go on:
no.	gene	siRNA no.	p65 translocation z-score	Outcome
97	Map3k7 (mitogen-activated protein kinase kinase kinase 7)	1	0.456	inactive
98	Map3k7 (mitogen-activated protein kinase kinase kinase 7)	2	0.677	inactive
99	Map3k7 (mitogen-activated protein kinase kinase kinase 7)	3	-2.29	active
100	Map3k7 (mitogen-activated protein kinase kinase kinase 7)	4	0.0712	inactive
101	Map3k7 (mitogen-activated protein kinase kinase kinase 7)	5	1.41	inactive
102	Map3k7 (mitogen-activated protein kinase kinase kinase 7)	6	3.09	active
103	Ifnar2 (interferon (alpha and beta) receptor 2)	1	2.08	active
104	Ifnar2 (interferon (alpha and beta) receptor 2)	2	-1.11	inactive
105	Ifnar2 (interferon (alpha and beta) receptor 2)	3	1.25	inactive
106	Ifnar2 (interferon (alpha and beta) receptor 2)	4	-0.58	inactive
107	Ifnar2 (interferon (alpha and beta) receptor 2)	5	0.6	inactive
108	Ifnar2 (interferon (alpha and beta) receptor 2)	6	-1.72	active
109	Ripk3 (receptor-interacting serine-threonine kinase 3)	1	-0.246	inactive
110	Ripk3 (receptor-interacting serine-threonine kinase 3)	2	0.452	inactive
111	Ripk3 (receptor-interacting serine-threonine kinase 3)	3	-0.74	inactive
112	Ripk3 (receptor-interacting serine-threonine kinase 3)	4	-0.418	inactive
113	Ripk3 (receptor-interacting serine-threonine kinase 3)	5	-0.166	inactive
114	Ripk3 (receptor-interacting serine-threonine kinase 3)	6	1.58	active
115	Atf2 (activating transcription factor 2)	1	-1.38	inactive
116	Atf2 (activating transcription factor 2)	2	-0.87	inactive
117	Atf2 (activating transcription factor 2)	3	0.105	inactive
118	Atf2 (activating transcription factor 2)	4	-1.35	inactive
119	Atf2 (activating transcription factor 2)	5	0.816	inactive
120	Atf2 (activating transcription factor 2)	6	0.443	inactive
121	Irf7 (interferon regulatory factor 7)	1	-0.569	inactive
122	Irf7 (interferon regulatory factor 7)	2	0.15	inactive
123	Irf7 (interferon regulatory factor 7)	3	0.122	inactive
124	Irf7 (interferon regulatory factor 7)	4	-0.646	inactive
125	Irf7 (interferon regulatory factor 7)	5	-0.777	inactive
126	Irf7 (interferon regulatory factor 7)	6	-0.486	inactive
127	Mapk9 (mitogen-activated protein kinase 9)	1	0.122	inactive
128	Mapk9 (mitogen-activated protein kinase 9)	2	0.0198	inactive
129	Mapk9 (mitogen-activated protein kinase 9)	3	-0.53	inactive
130	Mapk9 (mitogen-activated protein kinase 9)	4	0.458	inactive
131	Mapk9 (mitogen-activated protein kinase 9)	5	-1.97	active
132	Mapk9 (mitogen-activated protein kinase 9)	6	0.00789	inactive
133	Rac1 (Rac family small GTPase 1)	1	1.77	active
134	Rac1 (Rac family small GTPase 1)	2	0.227	inactive
135	Rac1 (Rac family small GTPase 1)	3	-2.31	active
136	Rac1 (Rac family small GTPase 1)	4	-0.151	inactive
137	Rac1 (Rac family small GTPase 1)	5	-0.762	inactive
138	Rac1 (Rac family small GTPase 1)	6	-1.3	inactive
139	Mapk3 (mitogen-activated protein kinase 3)	1	-1.64	active
140	Mapk3 (mitogen-activated protein kinase 3)	2	0.736	inactive
141	Mapk3 (mitogen-activated protein kinase 3)	3	-0.228	inactive
142	Mapk3 (mitogen-activated protein kinase 3)	4	0.312	inactive
143	Mapk3 (mitogen-activated protein kinase 3)	5	-0.484	inactive
144	Mapk3 (mitogen-activated protein kinase 3)	6	-0.355	inactive
